The record followed here is the supplement of paper PMC11006884.

Chains of the proteins cited; added tags and fusions are not shown. Lines headed by an entry give the natural chain unless they say otherwise; changes in a name come on top.
UniProt Q9BZ95: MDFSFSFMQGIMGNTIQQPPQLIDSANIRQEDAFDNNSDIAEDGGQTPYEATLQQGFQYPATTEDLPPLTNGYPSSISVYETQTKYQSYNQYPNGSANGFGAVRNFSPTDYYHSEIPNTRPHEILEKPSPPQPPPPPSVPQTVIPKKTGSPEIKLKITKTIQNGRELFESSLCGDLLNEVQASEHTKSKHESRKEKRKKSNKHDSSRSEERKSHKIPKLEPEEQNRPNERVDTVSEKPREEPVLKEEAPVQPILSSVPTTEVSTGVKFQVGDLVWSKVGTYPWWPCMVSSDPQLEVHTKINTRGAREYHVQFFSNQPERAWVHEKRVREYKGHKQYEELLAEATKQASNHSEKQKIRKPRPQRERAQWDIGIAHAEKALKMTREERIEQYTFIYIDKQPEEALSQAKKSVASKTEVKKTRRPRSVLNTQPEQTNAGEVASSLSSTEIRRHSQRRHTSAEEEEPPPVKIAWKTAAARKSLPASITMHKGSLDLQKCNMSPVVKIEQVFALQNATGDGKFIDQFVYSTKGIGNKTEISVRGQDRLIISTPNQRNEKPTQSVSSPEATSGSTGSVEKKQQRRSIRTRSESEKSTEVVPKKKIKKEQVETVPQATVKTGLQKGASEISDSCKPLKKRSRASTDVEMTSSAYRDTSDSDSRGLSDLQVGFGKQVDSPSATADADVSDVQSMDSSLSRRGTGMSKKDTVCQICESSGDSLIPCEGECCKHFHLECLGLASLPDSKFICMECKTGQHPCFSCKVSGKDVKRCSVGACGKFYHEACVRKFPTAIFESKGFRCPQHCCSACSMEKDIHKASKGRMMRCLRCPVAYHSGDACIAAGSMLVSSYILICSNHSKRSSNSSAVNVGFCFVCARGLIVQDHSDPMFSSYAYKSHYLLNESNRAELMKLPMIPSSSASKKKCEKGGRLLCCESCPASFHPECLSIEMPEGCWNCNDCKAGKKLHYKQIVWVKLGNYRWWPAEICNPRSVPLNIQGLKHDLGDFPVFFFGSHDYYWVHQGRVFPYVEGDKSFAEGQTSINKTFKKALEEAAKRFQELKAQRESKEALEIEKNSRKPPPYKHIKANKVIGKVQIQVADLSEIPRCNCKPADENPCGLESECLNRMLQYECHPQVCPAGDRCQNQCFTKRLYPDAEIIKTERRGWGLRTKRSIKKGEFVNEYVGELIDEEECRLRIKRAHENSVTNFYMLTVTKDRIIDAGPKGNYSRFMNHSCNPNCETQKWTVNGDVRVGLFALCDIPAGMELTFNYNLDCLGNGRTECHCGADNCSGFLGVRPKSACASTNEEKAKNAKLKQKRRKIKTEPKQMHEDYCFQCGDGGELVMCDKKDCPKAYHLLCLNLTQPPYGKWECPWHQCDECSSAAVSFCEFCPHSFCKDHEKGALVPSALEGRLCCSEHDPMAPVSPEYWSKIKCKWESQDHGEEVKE
UniProt Q9C0C2: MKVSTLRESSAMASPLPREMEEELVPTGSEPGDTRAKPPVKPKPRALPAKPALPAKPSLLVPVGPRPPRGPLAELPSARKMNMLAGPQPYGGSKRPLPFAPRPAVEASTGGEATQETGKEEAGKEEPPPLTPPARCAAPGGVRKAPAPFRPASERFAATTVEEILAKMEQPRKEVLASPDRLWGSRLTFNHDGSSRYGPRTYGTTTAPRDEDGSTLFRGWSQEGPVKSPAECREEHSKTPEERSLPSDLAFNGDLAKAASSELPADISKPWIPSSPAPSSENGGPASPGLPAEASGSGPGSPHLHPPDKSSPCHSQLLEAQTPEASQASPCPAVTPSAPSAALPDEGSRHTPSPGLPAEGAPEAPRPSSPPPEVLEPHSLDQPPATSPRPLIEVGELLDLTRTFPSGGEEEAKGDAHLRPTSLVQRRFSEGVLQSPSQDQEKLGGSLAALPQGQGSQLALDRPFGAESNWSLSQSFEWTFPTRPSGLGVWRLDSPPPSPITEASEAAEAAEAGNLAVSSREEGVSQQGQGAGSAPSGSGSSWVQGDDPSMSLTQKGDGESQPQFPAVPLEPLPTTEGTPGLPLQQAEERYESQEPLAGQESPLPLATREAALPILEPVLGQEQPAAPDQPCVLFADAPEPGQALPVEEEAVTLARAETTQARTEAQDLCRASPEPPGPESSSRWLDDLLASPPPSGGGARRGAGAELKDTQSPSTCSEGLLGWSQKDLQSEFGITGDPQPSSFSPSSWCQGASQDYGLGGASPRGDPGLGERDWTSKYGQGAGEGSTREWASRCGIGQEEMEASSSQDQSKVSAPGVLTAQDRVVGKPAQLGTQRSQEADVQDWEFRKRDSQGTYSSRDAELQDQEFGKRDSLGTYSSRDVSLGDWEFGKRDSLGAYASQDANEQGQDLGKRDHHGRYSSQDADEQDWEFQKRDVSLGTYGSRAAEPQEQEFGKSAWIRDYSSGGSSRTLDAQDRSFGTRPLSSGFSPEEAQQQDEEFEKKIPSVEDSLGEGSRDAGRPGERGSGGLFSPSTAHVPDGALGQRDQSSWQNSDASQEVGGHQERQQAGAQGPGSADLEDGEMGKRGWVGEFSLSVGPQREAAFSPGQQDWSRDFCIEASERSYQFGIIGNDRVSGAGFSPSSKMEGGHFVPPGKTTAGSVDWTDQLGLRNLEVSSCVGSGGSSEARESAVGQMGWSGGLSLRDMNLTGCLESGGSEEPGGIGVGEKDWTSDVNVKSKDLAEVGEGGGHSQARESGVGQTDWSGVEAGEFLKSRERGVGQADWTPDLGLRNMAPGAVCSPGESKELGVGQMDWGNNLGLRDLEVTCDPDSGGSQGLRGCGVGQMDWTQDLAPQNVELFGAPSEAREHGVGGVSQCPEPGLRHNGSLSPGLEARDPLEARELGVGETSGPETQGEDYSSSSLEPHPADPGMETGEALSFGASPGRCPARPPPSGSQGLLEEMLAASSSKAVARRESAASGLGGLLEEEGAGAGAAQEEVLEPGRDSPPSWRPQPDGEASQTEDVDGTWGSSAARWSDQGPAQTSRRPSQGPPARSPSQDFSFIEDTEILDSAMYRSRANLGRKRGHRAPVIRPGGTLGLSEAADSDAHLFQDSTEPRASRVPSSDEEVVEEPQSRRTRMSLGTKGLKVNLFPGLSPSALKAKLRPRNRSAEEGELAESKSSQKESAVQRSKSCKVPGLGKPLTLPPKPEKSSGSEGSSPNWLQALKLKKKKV
UniProt Q9BRU9: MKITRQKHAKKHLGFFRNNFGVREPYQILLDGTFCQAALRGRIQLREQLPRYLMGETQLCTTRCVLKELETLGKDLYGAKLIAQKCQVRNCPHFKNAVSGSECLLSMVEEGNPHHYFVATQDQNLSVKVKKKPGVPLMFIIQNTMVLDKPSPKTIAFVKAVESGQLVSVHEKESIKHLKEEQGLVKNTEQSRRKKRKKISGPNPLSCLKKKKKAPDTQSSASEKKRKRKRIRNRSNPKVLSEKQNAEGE
UniProt Q9BU76: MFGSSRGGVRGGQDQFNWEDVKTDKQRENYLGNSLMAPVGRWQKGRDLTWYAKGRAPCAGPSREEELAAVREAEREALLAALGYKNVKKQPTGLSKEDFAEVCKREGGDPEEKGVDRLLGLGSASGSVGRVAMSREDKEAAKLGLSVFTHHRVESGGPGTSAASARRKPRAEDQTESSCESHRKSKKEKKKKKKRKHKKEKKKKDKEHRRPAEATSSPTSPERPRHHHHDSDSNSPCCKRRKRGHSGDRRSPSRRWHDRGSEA
UniProt Q9BXJ9: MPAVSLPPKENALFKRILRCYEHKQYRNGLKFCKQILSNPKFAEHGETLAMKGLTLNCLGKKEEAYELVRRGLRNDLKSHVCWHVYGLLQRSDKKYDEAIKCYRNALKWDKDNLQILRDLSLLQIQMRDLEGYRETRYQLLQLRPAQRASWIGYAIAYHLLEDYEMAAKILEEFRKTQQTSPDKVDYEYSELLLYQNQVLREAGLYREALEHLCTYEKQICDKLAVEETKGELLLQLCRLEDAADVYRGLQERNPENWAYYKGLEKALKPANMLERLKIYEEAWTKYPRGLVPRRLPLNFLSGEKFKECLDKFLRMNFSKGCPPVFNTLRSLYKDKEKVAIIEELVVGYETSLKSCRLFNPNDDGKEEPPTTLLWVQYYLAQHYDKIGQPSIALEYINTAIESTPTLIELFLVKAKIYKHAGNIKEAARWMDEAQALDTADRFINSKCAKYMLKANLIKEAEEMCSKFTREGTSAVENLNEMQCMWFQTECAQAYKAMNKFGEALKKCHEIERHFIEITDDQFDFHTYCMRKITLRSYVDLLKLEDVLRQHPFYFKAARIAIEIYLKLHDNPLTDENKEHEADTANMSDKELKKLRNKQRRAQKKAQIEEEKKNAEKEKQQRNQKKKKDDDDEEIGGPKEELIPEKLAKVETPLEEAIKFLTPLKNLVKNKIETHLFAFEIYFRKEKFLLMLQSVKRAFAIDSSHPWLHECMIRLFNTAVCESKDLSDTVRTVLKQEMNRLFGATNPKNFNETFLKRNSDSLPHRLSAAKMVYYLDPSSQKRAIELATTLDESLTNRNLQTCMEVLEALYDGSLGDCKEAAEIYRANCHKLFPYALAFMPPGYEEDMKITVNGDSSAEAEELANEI
UniProt Q9BZL6: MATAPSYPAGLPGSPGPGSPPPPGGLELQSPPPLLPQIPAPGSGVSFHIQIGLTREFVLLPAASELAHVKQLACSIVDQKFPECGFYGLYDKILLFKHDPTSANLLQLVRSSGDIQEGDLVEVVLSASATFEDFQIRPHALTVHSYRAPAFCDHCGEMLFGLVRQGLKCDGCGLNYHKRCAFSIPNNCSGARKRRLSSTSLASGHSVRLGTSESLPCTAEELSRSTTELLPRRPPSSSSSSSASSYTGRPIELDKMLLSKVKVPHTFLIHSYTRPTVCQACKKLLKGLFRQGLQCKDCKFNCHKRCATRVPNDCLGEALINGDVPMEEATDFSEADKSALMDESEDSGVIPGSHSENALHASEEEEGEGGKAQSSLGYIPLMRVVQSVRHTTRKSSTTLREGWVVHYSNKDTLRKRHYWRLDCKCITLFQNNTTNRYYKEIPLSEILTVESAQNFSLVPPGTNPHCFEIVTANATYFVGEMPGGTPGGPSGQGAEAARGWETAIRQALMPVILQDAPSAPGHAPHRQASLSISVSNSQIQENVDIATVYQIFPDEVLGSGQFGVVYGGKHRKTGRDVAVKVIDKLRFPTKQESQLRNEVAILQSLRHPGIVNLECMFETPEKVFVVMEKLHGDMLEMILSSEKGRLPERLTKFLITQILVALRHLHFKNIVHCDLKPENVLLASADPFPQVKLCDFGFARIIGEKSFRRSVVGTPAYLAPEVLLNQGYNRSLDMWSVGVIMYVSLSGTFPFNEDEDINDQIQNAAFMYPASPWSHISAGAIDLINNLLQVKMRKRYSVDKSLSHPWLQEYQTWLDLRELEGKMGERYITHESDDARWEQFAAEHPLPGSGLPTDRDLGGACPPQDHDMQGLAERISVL
UniProt Q9BUF5, whole entry, looked up: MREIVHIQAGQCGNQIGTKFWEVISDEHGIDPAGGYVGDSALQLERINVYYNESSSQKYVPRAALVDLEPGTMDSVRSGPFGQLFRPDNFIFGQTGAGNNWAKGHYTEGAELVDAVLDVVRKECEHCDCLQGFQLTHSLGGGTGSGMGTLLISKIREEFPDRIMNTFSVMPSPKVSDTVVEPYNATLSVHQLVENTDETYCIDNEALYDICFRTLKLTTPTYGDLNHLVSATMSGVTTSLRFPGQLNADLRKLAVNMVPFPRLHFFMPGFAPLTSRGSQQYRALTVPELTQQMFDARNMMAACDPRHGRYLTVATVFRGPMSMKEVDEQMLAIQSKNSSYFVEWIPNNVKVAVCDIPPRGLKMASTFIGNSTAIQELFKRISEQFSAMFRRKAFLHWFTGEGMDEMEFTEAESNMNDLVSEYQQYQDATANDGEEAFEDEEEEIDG
UniProt Q9H0K6: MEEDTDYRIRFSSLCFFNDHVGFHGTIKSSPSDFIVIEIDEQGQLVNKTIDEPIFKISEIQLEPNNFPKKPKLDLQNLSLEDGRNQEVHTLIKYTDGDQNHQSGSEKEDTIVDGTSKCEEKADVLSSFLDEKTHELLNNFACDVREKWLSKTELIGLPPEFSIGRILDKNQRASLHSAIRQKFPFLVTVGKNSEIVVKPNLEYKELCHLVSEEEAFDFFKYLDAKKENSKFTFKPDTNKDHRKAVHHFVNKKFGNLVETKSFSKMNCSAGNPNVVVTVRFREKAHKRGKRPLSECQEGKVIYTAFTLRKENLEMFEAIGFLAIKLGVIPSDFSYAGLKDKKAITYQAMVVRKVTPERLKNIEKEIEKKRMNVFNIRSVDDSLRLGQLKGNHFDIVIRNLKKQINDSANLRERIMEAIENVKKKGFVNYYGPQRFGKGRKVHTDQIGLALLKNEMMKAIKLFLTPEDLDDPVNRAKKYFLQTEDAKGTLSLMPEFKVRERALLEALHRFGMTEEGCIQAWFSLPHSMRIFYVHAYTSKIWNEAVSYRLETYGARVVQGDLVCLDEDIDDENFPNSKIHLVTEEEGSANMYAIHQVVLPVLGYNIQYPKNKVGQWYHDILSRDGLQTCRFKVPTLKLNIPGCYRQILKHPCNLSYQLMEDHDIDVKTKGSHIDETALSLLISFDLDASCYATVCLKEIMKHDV

What follows is the remainder of the data, with few or none of the targets with a hit. The data scatter; read single values as rough. The list shows a part of the results, in another mix than the full data.

Compound in this experiment: COC(=O)/C=C/c1ccccc1 [methyl cinnamate]
Briefly: log2 ratio of iodoacetamide-alkyne labeling of the cysteine site, DMSO over compound (competition); higher = stronger covalent engagement of the cysteine by the compound, active = 1 or more. Particulars: 500 µM; treatment time 1 h; system: HEK293T cell lysate. The gist of the method: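 HEK293T lysate (2 mg/mL) was treated with DMSO or electrophile (500 µM, 1 h, ambient temperature), then iodoacetamide alkyne (1 h), clicked to sCIP-TMT reagents, pooled, trypsin-digested overnight at 37 °C, streptavidin-enriched and acid-eluted. Peptides were run on Orbitrap Eclipse LC-MS/MS with FAIMS and quantified in FragPipe. The log2 competition ratio per cysteine is mean control-channel over mean compound-channel reporter intensity. Duplicate channels and three replicates were used, and cysteines quantified in only one replicate were excluded.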
ZYG11B C643 (UniProt Q9C0D3): the “log2 ratio of iodoacetamide-alkyne labeling” value (“log2 ratio” for short) is inactive: -0.2. The value for NSD3 C173 (UniProt Q9BZ95) was inactive: 0.263; that for UniProt Q9BRS8_C416 was inactive: 0.17. The value for TNKS1BP1 C794 (UniProt Q9C0C2) was inactive: 0.335; that for UniProt Q9BTY7_C368 was inactive: -0.156. The value for UTP23 C207 (UniProt Q9BRU9) was inactive: 0.057; that for UniProt Q9BU76_C58 was inactive: 0.397; that for SCAPER C1301 (UniProt Q9BY12) was inactive: 0.123. On to C20orf27 C156 (UniProt Q9GZN8), for which the “log2 ratio” value is inactive: -0.363. POLDIP3 C301 (UniProt Q9BY77): the “log2 ratio” value was inactive: -0.0678. In the case of GINS3 C188 (UniProt Q9BRX5), the “log2 ratio” value was inactive: 0.0738. In the case of CPPED1 C54 (UniProt Q9BRF8), the “log2 ratio” value was inactive: 0.338.

UniProt Q9BXJ9_C721: the “log2 ratio” value was inactive: 0.367. With UniProt Q9BTE3_C636, the “log2 ratio” value is inactive: 0.382. As to UniProt Q9H0G5_C171, the “log2 ratio” value was inactive: 0.115. The value for UniProt Q9BQP7_C79 was inactive: 0.165; that for PDCD2L C100 (UniProt Q9BRP1) was inactive: 0.0462. To GNL3 C280 (UniProt Q9BVP2) belongs inactive: 0.0899.

As for C1orf50 C189 (UniProt Q9BV19), the “log2 ratio” value is inactive: -0.34. To COPS4 C378 (UniProt Q9BT78) belongs inactive: -0.0659; to SETD2 C1241 (UniProt Q9BYW2), inactive: 0.383. As for FYCO1 C318 (UniProt Q9BQS8), the “log2 ratio” value was inactive: -0.118. To SLK C1153 (UniProt Q9H2G2) belongs inactive: 0.454. To GNL3 C131 (UniProt Q9BVP2) belongs inactive: 0.122.

With MRPL9 C221 (UniProt Q9BYD2), the “log2 ratio” value was inactive: -0.000759. With TNKS1BP1 C1324 (UniProt Q9C0C2), the “log2 ratio” value is inactive: 0.45. For KLC2 C441 (UniProt Q9H0B6), the “log2 ratio” value was inactive: 0.312. The value for PRKD2 C861 (UniProt Q9BZL6) was inactive: 0.0312. The value for UniProt Q9BQI3_C494 was inactive: 0.0265; that for TUBB6 C12 (UniProt Q9BUF5) was inactive: -0.209; that for RAB11FIP5 C337 (UniProt Q9BXF6) was inactive: 0.232. To TNKS1BP1 C631 (UniProt Q9C0C2) belongs inactive: 0.402. ADNP C31 (UniProt Q9H2P0): the “log2 ratio” value is inactive: -0.113. To SLK C993 (UniProt Q9H2G2) belongs inactive: 0.169; to LSG1 C455 (UniProt Q9H089), inactive: -0.258. To PUS7L C142 (UniProt Q9H0K6) belongs inactive: -0.112; to UniProt Q9BW83_C149, inactive: -0.114. For UniProt Q9BTE3_C200, the “log2 ratio” value was inactive: 0.226.
